According to PubChem BioAssay AID540276 (National Center for Advancing Translational Sciences (NCATS), 2011):
“And” between values parts separate entries of the source, which are not always exact repeats. Equal entries are not always repeated. About 5,400 (1.8%) of roughly 300,000 compounds were called active. The shares of active, inactive and inconclusive entries below differ from those in the screen. Calls follow the shape of the full dose curve; tested in HEK293 cells. Potencies beside an inconclusive call are fits to weak or partial responses and may not hold up.

Assay: qHTS for inhibitors of binding or entry into cells for Marburg Virus
Details: Marburg virus pseudotyped entry inhibition, cell reporter; activity change, negative = inhibition: at 37.8 µM (top of the series) unless noted
% is scaled to controls: 0 for no effect and ±100 for the full control effect; potency is read from the fitted curve at half-maximal effect.

| Compound | Potency | activity change, negative = inhibition |
| --- | --- | --- |
| Nc1ccc(C(=O)OCC(=O)Nc2ccc3c(c2)OCO3)cc1[N+](=O)[O-] | inconclusive: 4.11 µM [activator, single point] |  |
| COc1cc(CNC(=O)c2nc(Cn3nc(C)c(Br)c3C)no2)cc(OC)c1 | inconclusive: 3.98 µM [inhibitor, partial curve] |  |
| CCN(CC)S(=O)(=O)c1ccc(N2CCCCC2)c(NC(=O)C2CCN(C(=O)c3ccc(F)cc3)CC2)c1 | inconclusive: 20 µM [inhibitor, partial curve, poor fit] |  |
| O=C(CCN1C(=O)/C(=C/c2ccc(F)cc2)SC1=S)NC1CCS(=O)(=O)C1 (centres undefined) |  | inactive: -7.69% [at 46.1 µM] |
| COC(=O)c1cnc2ccccc2n1 |  | inactive: 22.3% |
| Fc1ccc2c(c1)/C(=N/Nc1ccccn1)CCS2 |  | inactive: -14% [at 46.1 µM] |
| COc1ccccc1-c1cc(C(=O)NCc2ccco2)no1 |  | inactive: -2.47% |
| CN1CCC(N(C)C(=O)c2cc(=O)c3ccccc3o2)CC1 | inconclusive: 1.12 µM [activator, partial curve, poor fit] |  |
| CC(=O)Nc1ccc(S(=O)(=O)Nc2cccc(S(=O)(=O)N(C)c3ccccc3)c2)cc1 | inconclusive: 11.2 µM [inhibitor, single point] |  |
| O=C(c1ccc(C(F)(F)F)cc1)n1ccc(-c2cccs2)n1 | inconclusive: 5.62 µM [inhibitor, single point] |  |
| COc1ccc(CN(C)CC(=O)Nc2sc3c(c2C#N)CCC3)c(OC)c1 | inconclusive: 11.2 µM [inhibitor, partial curve, poor fit] |  |
| COc1ccc2c(c1)CCc1c(C(=O)NCc3cccnc3)noc1-2 | inconclusive: 25.1 µM [inhibitor, single point] |  |
| COc1ccc(CCN=C(N)NS(=O)(=O)c2ccc(F)cc2)cc1 |  | inactive: -5.88% [at 46.1 µM] |
| COC(=O)C(C)Oc1ccc2c3c(c(=O)oc2c1)CCCCC3 (centres undefined) | inconclusive: 29.1 µM [activator, single point] |  |
| CN(CCC#N)c1ccc(/C=C(\C#N)c2ccccn2)cc1 | active: 8.2 µM |  |
| O=C(Nc1ccc(Cl)c(Cl)c1)Nc1ccc(Br)cc1F | inconclusive: 14.1 µM [inhibitor, single point] |  |
| CCc1ccc(-c2cc(C(F)(F)F)n3nc(C(=O)Nc4c(C)nn(Cc5ccccc5C)c4C)cc3n2)s1 | inconclusive: 32.6 µM [inhibitor, single point] |  |
| CC(=O)N=c1sc2c3ccccc3ccc2n1C |  | inactive: 21.5% |
| CSc1cccc(NC(=O)Cn2cccc2)c1 |  | inactive: -8.13% |
| COc1ccc(C(=O)Nc2cccc(C)n2)cc1S(=O)(=O)N1CCCc2ccccc21 | inconclusive: 35.5 µM [inhibitor, single point] |  |
| O=[N+]([O-])c1ccc(COc2ccc(-c3[nH]ncc3-c3ccccc3)c(O)c2)cc1 | inconclusive: 0.891 µM [inhibitor, full curve, poor fit] |  |
| CN(C(=O)c1ccccc1Br)C1CCS(=O)(=O)C1 (centres undefined) |  | inactive: -13% [at 46.1 µM] |

Exported comma-delimited: part of the list above
Compound,Potency,"activity change, negative = inhibition"
Nc1ccc(C(=O)OCC(=O)Nc2ccc3c(c2)OCO3)cc1[N+](=O)[O-],"inconclusive: 4.11 µM [activator, single point]",
CCN(CC)S(=O)(=O)c1ccc(N2CCCCC2)c(NC(=O)C2CCN(C(=O)c3ccc(F)cc3)CC2)c1,"inconclusive: 20 µM [inhibitor, partial curve, poor fit]",
O=C(CCN1C(=O)/C(=C/c2ccc(F)cc2)SC1=S)NC1CCS(=O)(=O)C1 (centres undefined),,inactive: -7.69% [at 46.1 µM]
COC(=O)c1cnc2ccccc2n1,,inactive: 22.3%
Fc1ccc2c(c1)/C(=N/Nc1ccccn1)CCS2,,inactive: -14% [at 46.1 µM]
O=C(c1ccc(C(F)(F)F)cc1)n1ccc(-c2cccs2)n1,"inconclusive: 5.62 µM [inhibitor, single point]",
COc1ccc(CN(C)CC(=O)Nc2sc3c(c2C#N)CCC3)c(OC)c1,"inconclusive: 11.2 µM [inhibitor, partial curve, poor fit]",
COc1ccc(CCN=C(N)NS(=O)(=O)c2ccc(F)cc2)cc1,,inactive: -5.88% [at 46.1 µM]
COC(=O)C(C)Oc1ccc2c3c(c(=O)oc2c1)CCCCC3 (centres undefined),"inconclusive: 29.1 µM [activator, single point]",
CN(CCC#N)c1ccc(/C=C(\C#N)c2ccccn2)cc1,active: 8.2 µM,
O=C(Nc1ccc(Cl)c(Cl)c1)Nc1ccc(Br)cc1F,"inconclusive: 14.1 µM [inhibitor, single point]",
CC(=O)N=c1sc2c3ccccc3ccc2n1C,,inactive: 21.5%
O=[N+]([O-])c1ccc(COc2ccc(-c3[nH]ncc3-c3ccccc3)c(O)c2)cc1,"inconclusive: 0.891 µM [inhibitor, full curve, poor fit]",

Remaining list, next part:

| Compound | Potency | activity change, negative = inhibition |
| --- | --- | --- |
| CC(=O)Nc1ccc(C(=O)OCCC(C)C)cc1 | inconclusive: 13 µM [activator, single point] |  |
| COc1cc(CN2CCN(Cc3ccc4cc(F)ccc4n3)CC2CCO)cc(OC)c1 (centres undefined) | inconclusive: 17.8 µM [inhibitor, single point] |  |
| CC(=O)N1c2ccc(S(=O)(=O)N3CCC(C(=O)NCc4ccc(Cl)cc4)CC3)cc2CC1C (centres undefined) |  | inactive: -6.32% [at 46.1 µM] |
| O=C1C=C(N(CCO)Cc2ccccc2)c2ccccc2C1=O | inconclusive: 11.2 µM [inhibitor, partial curve, poor fit] |  |
| CCN(C(=O)Cn1ncc2c1-c1cc(C)ccc1OC2)c1cc(Cl)ccc1OC | inconclusive: 11.2 µM [inhibitor, single point] |  |
| N#CCCn1c(-c2nonc2NC(=O)c2ccccc2Cl)nc2ccccc21 | inconclusive: 3.26 µM [inhibitor, partial curve, poor fit] |  |
| CCC(NC(=O)CCl)c1ccc(C)cc1 (centres undefined) | inconclusive: 3.55 µM [inhibitor, partial curve, poor fit] |  |
| COc1cc(/C=C/C(=O)OCC(=O)Nc2cc(C)on2)ccc1OCC#N | inconclusive: 31.6 µM [inhibitor, single point] |  |
| Cc1ccc(S(=O)(=O)N(C)C)cc1NC(=O)C(C)OC(=O)C1CCCCC1 (centres undefined) | inconclusive: 5.62 µM [inhibitor, single point] |  |
| CC(C)(C)NC(=O)c1ccc2c(c1)N(CC(=O)N1CCN(c3ccc(F)cc3)CC1)C(=O)C(C)(C)O2 | inconclusive: 6.31 µM [inhibitor, single point] |  |
| COC(=O)c1ccc(CN(c2ccccc2OC)S(=O)(=O)c2cccs2)o1 |  | inconclusive: 10.4% [activator] |
| Nc1ncnc(Nc2cccc(F)c2)n1 | inconclusive: 0.891 µM [inhibitor, partial curve, poor fit] |  |
| Nc1c(C(=O)NC2CC2)sc2nc3c(c(-c4ccco4)c12)CC/C3=C/c1ccco1 | active: 4.47 µM |  |
| CC(C)C(=O)Nc1ccc(N2CCCC2)cc1 |  | inactive: 13.5% |
| CCOc1ccc(N=C2NC(=O)/C(=C/C(=O)OC)S2)cc1 | inconclusive: 7.08 µM [inhibitor, partial curve, poor fit] |  |
| COc1ccc(CC(=O)NCc2ccc(-n3cccc3)cc2)cc1OC | inconclusive: 4.47 µM [inhibitor, full curve, poor fit] |  |
| CCOC(=O)c1cn(CC(=O)Nc2cccc(Cl)c2C)nn1 | inactive and inconclusive: 7.94 µM [inhibitor, partial curve, poor fit] |  |
| O=C(Nc1ccc(Br)cn1)C1CCCN1S(=O)(=O)c1ccccc1 (centres undefined) |  | inactive: -29.5% |
| COCCNC(=O)c1c(NC(=O)Cc2coc3cc(C)ccc23)sc2c1CCCC2 |  | inactive: 3.12% [at 46.1 µM] |
| CC(N)C(=O)NC1C2C(=C(O)CC(O)C2O)C(=O)OC1(C)C(Cl)Cl (centres undefined) | active: 0.316 µM |  |
| N#Cc1ccc(CN2CCN(CC(=O)NCCc3ccc(Cl)cc3Cl)CC2)cc1 | inconclusive: 35.5 µM [inhibitor, single point] |  |
| CC1(C)C(O)=C(c2nc3ccccc3[nH]2)C(=N)N1c1ccccc1 |  | inactive: 18.3% |
